# Measurements: the supplement of paper PMC9433722
# Counter-ions that a name gives are not always drawn. The list shows a part of the results. Repeats are few or missing, and single values can be far off.
# Key:
# [1] = system: Saos-2; experiment: cell viability (CCK-8) relative to DMSO control (% of control); higher = less cytotoxic; conditions: 10 µM; 48 h
# [2] = system: U2OS; experiment: as above; conditions: 10 µM; 48 h
SMILES,cell viability [1],cell viability [2]
CNS(=O)(=O)Cc1ccc2[nH]cc(CCN(C)C)c2c1 [Sumatriptan Succinate],63.8,113
C[C@]12CC[C@@H]3c4ccc(OS(=O)(=O)O)cc4CC[C@H]3[C@@H]1CCC2=O [Estropipate],100,79.9
COc1ccnc(C[S+]([O-])c2nc3cc(OC(F)F)ccc3[nH]2)c1OC (stereo not drawn) [Pantoprazole],66.5,87.5
CN(C/C=C/c1ccccc1)Cc1cccc2ccccc12 [Naftifine·HCl],107,100
CC(CCc1ccccc1)NCC(O)c1ccc(O)c(C(N)=O)c1 (stereo not drawn) [Labetalol . hydrochloride],110,99.9
C[C@H]1C[C@@H]2[C@H]([C@@H](O)C[C@@]3(C)[C@H]2CC[C@]3(O)C(=O)CO)[C@@]2(C)C=CC(=O)C=C12 [Methylprednisolone],74.9,94
NC[C@@H]1O[C@H](O[C@H]2[C@@H](O)[C@H](O[C@@H]3[C@@H](O)[C@H](N)C[C@H](N)[C@H]3O[C@H]3O[C@H](CO)[C@@H](O)[C@H](O)[C@H]3N)O[C@@H]2CO)[C@H](N)[C@@H](O)[C@@H]1O [Paromomycin Sulfate],112,115
Clc1ccc2c(c1)CCc1cccnc1C2=C1CCNCC1 [Desloratadine],71.2,108
Cc1nc(-c2ccc(OCC(C)C)c(C#N)c2)sc1C(=O)O [Febuxostat],99.9,91.6
CN1CCCC(n2nc(Cc3ccc(Cl)cc3)c3ccccc3c2=O)CC1 (stereo not drawn) [Azelastine·HCl],109,109
CC=CC(=O)N(CC)c1ccccc1C [Crotamiton],69.8,102
CC[C@@H]([C@H](C)O)n1ncn(-c2ccc(N3CCN(c4ccc(OC[C@@H]5CO[C@@](Cn6cncn6)(c6ccc(F)cc6F)C5)cc4)CC3)cc2)c1=O [Posaconazole],106,88.3
COc1cc2nc(N3CCN(C(=O)C4COc5ccccc5O4)CC3)nc(N)c2cc1OC (stereo not drawn) [Doxazosin Mesylate],65.6,103
COC(=O)[C@@H]1CC2=CC(=O)CC[C@]2(C)[C@@]23O[C@@H]2C[C@@]2(C)[C@@H](CC[C@@]24CCC(=O)O4)[C@H]13 [Eplerenone],73.5,38.9
Cc1[nH]c(=O)c(C#N)cc1-c1ccncc1 [Milrinone],63.7,98.3
NCCS [Cysteamine·HCl],105,98.8
CCN(CC)CC#CCOC(=O)C(O)(c1ccccc1)C1CCCCC1 (stereo not drawn) [Oxybutynin Chloride],112,113
CC(C)/N=c1\cc2n(-c3ccc(Cl)cc3)c3ccccc3nc-2cc1Nc1ccc(Cl)cc1 [Clofazimine],103,102
Clc1ccc2nsnc2c1NC1=NCCN1 [Tizanidine·HCl],58.2,114
N#Cc1ccc(C(c2ccc(C#N)cc2)n2cncn2)cc1 [Letrozole],64.4,95.5
Cc1cc(C2CCCCC2)n(O)c(=O)c1 [Ciclopirox],64.4,66
Cc1cccc(C)c1OCC(=O)N[C@@H](Cc1ccccc1)[C@@H](O)C[C@H](Cc1ccccc1)NC(=O)[C@H](C(C)C)N1CCCNC1=O [Lopinavir],112,110
NC(=O)c1cnccn1 [Pyrazinamide],105,97
CC[C@]1(O)C[C@H]2CN(CCc3c([nH]c4ccccc34)[C@@](C(=O)OC)(c3cc4c(cc3OC)N(C=O)[C@H]3[C@@](O)(C(=O)OC)[C@H](OC(C)=O)[C@]5(CC)C=CCN6CC[C@]43[C@@H]65)C2)C1 [Vincristine Sulfate],30.7,67.6
CN1CCC(=C2c3ccccc3CC(=O)c3sccc32)CC1 [Ketotifen Fumarate],65.6,106
C[C@H](N[C@@H](CCc1ccccc1)C(=O)O)C(=O)N1CCC[C@H]1C(=O)O [Enalaprilat Maleate],67.5,112
CC(=O)[C@@]1(O)CC[C@H]2[C@@H]3C[C@H](C)C4=CC(=O)C=C[C@]4(C)[C@@]3(F)[C@@H](O)C[C@@]21C [Fluorometholone],112,100
CNC(=O)c1cnn(-c2nc(N)c3ncn([C@@H]4O[C@H](CO)[C@@H](O)[C@H]4O)c3n2)c1 [Regadenoson],106,105
Cc1c(OCC(F)(F)F)ccnc1C[S+]([O-])c1nc2ccccc2[nH]1 (stereo not drawn) [Lansoprazole],119,100

# Reprinted at random: 2 records from the list
SMILES,cell viability [1],cell viability [2]
COc1cc2nc(N3CCN(C(=O)C4COc5ccccc5O4)CC3)nc(N)c2cc1OC (stereo not drawn) [Doxazosin Mesylate],65.6,103
COc1ccnc(C[S+]([O-])c2nc3cc(OC(F)F)ccc3[nH]2)c1OC (stereo not drawn) [Pantoprazole],66.5,87.5
